Data source: PubChem BioAssay AID504764 (Drosophila RNAi Screening Center, 2011)
Test: 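Genome-wide screen for regulators of Notch-driven gene expression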 (primary screen). Cell system: Drosophila Kc167 cells. Reagent: long dsRNA against Drosophila genes. Timing: about 5 days (4 days dsRNA, then 24 h after transfection). Challenge: transfection of constitutively active membrane-tethered Notch lacking the extracellular domain, read 24 h later. Detection: 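Light from a Notch-responsive E(spl)m3 luciferase reporter under active Notch, with control-promoter and no-Notch reporter wells to normalise; raw counts from paired wells a and b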. Scale: induced reporter light, run 1, well a and induced reporter light, run 1, well b: higher = more light from the Notch target reporter with active Notch; control promoter light, run 1, well a and control promoter light, run 1, well b: higher = more light from the viral control promoter (cell number, transfection, viability); uninduced reporter light, run 1, well a: higher = more light from the Notch target reporter without active Notch. Rule for the call: 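Wells with low control signal or poorly matching duplicates excluded; duplicates averaged; per source plate, z beyond ±2 for induced/control log2 ratio or beyond ±1.8 for induced/uninduced marks a hit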. Calls: active = modifier hit (raised or lowered Notch signal); inactive = not a hit.
In all, the deposit lists about 22,000 reagents; shown is an unselected part of those that have a named target and a result. Of all reagents, 403 (1.9%) got an active call. 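Unnormalised raw counts per well; ratio z-scores behind the hit calls and whether each hit raises or lowers signal are not deposited.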 Names joined by + are all predicted targets of the reagent. Reagent sequences are not shown. Not given: the amount of reagent.

Against spidey [DRSC17932], the values are induced reporter light, run 1, well a = 1.40e5; induced reporter light, run 1, well b = 1.39e5; control promoter light, run 1, well a = 2.33e5; control promoter light, run 1, well b = 2.65e5; uninduced reporter light, run 1, well a = 10870; inactive.
Against CG4872 [DRSC19921], the values are induced reporter light, run 1, well a = 1.12e5; induced reporter light, run 1, well b = 1.32e5; control promoter light, run 1, well a = 1.09e5; control promoter light, run 1, well b = 46910; uninduced reporter light, run 1, well a = 9565; inactive.
Nup93-2 [DRSC16221] gave induced reporter light, run 1, well a = 1.04e5; induced reporter light, run 1, well b = 1.00e5; control promoter light, run 1, well a = 1.15e5; control promoter light, run 1, well b = 93980; uninduced reporter light, run 1, well a = 9650; inactive.
Gel [DRSC12350] showed induced reporter light, run 1, well a = 98305; induced reporter light, run 1, well b = 1.18e5; control promoter light, run 1, well a = 79110; control promoter light, run 1, well b = 92020; uninduced reporter light, run 1, well a = 8455; inactive.
Silencing of VAChT + ChAT [DRSC13312] came out at: induced reporter light, run 1, well a = 89930; induced reporter light, run 1, well b = 76165; control promoter light, run 1, well a = 1.10e5; control promoter light, run 1, well b = 1.16e5; uninduced reporter light, run 1, well a = 10930; inactive.
Knock-down of PTP-ER [DRSC04636] resulted in: induced reporter light, run 1, well a = 1.59e5; induced reporter light, run 1, well b = 1.72e5; control promoter light, run 1, well a = 1.91e5; control promoter light, run 1, well b = 2.27e5; uninduced reporter light, run 1, well a = 15205; inactive.
rn [DRSC12500] scored induced reporter light, run 1, well a = 6330; induced reporter light, run 1, well b = 7825; control promoter light, run 1, well a = 6520; control promoter light, run 1, well b = 3940; uninduced reporter light, run 1, well a = 1755; inactive.
For rn [DRSC12543], the values are induced reporter light, run 1, well a = 48795; induced reporter light, run 1, well b = 73260; control promoter light, run 1, well a = 59870; control promoter light, run 1, well b = 53755; uninduced reporter light, run 1, well a = 4055; inactive.
After knock-down of rn [DRSC12544], the record shows induced reporter light, run 1, well a = 84575; induced reporter light, run 1, well b = 1.06e5; control promoter light, run 1, well a = 79330; control promoter light, run 1, well b = 97690; uninduced reporter light, run 1, well a = 7328; inactive.
Against rn [DRSC12546] the deposit lists induced reporter light, run 1, well a = 1.57e5; induced reporter light, run 1, well b = 1.11e5; control promoter light, run 1, well a = 1.41e5; control promoter light, run 1, well b = 1.22e5; uninduced reporter light, run 1, well a = 9655; inactive.
Knock-down of rn [DRSC22291] came out at: active.
For l(2)05287 [DRSC02151], the values are induced reporter light, run 1, well a = 98120; induced reporter light, run 1, well b = 1.33e5; control promoter light, run 1, well a = 1.02e5; control promoter light, run 1, well b = 81025; uninduced reporter light, run 1, well a = 7025; inactive.
With knock-down of l(2)05287 [DRSC02152] the results were induced reporter light, run 1, well a = 49875; induced reporter light, run 1, well b = 37490; control promoter light, run 1, well a = 35285; control promoter light, run 1, well b = 25115; uninduced reporter light, run 1, well a = 2585; inactive.
With knock-down of CG11286 [DRSC14293], the record shows induced reporter light, run 1, well a = 79465; induced reporter light, run 1, well b = 78000; control promoter light, run 1, well a = 65490; control promoter light, run 1, well b = 59225; uninduced reporter light, run 1, well a = 5140; inactive.
For CG11327 [DRSC02146], the values are induced reporter light, run 1, well a = 1.68e5; induced reporter light, run 1, well b = 97385; control promoter light, run 1, well a = 1.54e5; control promoter light, run 1, well b = 1.42e5; uninduced reporter light, run 1, well a = 9835; inactive.
Against kl-2 [DRSC21136], the entry reads induced reporter light, run 1, well a = 1.09e5; induced reporter light, run 1, well b = 74035; control promoter light, run 1, well a = 93395; control promoter light, run 1, well b = 1.03e5; uninduced reporter light, run 1, well a = 8670; inactive.
For Jarid2 [DRSC10372], the entry reads induced reporter light, run 1, well a = 96025; induced reporter light, run 1, well b = 1.27e5; control promoter light, run 1, well a = 85345; control promoter light, run 1, well b = 36030; uninduced reporter light, run 1, well a = 9540; inactive.
For 5-HT1B [DRSC05031] the deposit lists induced reporter light, run 1, well a = 1.17e5; induced reporter light, run 1, well b = 98240; control promoter light, run 1, well a = 99315; control promoter light, run 1, well b = 1.36e5; uninduced reporter light, run 1, well a = 8020; inactive.
5-HT1B [DRSC05769] showed induced reporter light, run 1, well a = 1.04e5; induced reporter light, run 1, well b = 1.20e5; control promoter light, run 1, well a = 1.70e5; control promoter light, run 1, well b = 1.29e5; uninduced reporter light, run 1, well a = 8605; inactive.

A few values from the list.
Entry of rn [DRSC12500] under “control promoter light, run 1, well a”: 6520
Under “induced reporter light, run 1, well a”, rn [DRSC12544] reads 84575
